Source: PubChem BioAssay AID493014 (National Center for Advancing Translational Sciences (NCATS), 2011)
The list shows a part of the results. Further columns of the screen follow, without active or inactive calls. The list favours compounds with an active or inconclusive main result. Words in brackets tell the shape of the fitted curve; partial curves, single points and poor fits give uncertain potencies.

Assay: qHTS Assay to Find Inhibitors of Chronic Active B-Cell Receptor Signaling
Conditions: ABC-DLBCL IkBa-CBG/CBR reporter, luminescence ratio (green luciferase fused to IkBa over red control in TMD8 lymphoma cells), 4 h
In short: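 Compounds up to 46 uM were incubated four hours with TMD8 cells whose green CBG68 luciferase is fused to IkappaBalpha; red CBR luminescence normalised the signal, and concentration-effect curves were fitted to fusion, red and ratio data.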

[1] = measured here: CBR red luminescence, cell number

Structure (SMILES)	AC50 [1]	AC50 (measured here: IkBa-CBG green luminescence)
C[C@@H](C(=O)NCc1ccccc1)[C@H]1C[C@]1(C)[C@H](NC(=O)OCc1ccccc1)c1ccccc1	29.1 µM [falling, single point]	–
Oc1ccccc1C(=S)N1CCN(C(=S)c2ccccc2O)CC1	11.2 µM [falling, single point]	–
Cc1ccc(/C=N/NC(=O)c2ccc(-n3cnnn3)cc2)cc1	14.6 µM [falling, partial curve, poor fit]	–
O=C(Cc1ccc(-c2ccccc2)cc1)NNC(=S)NCc1ccco1	6.31 µM [rising, partial curve, poor fit]	–
COc1ccc(C2=NN(C(=O)c3cccs3)C(c3ccccc3OC)C2)cc1OC (stereo not drawn)	11.2 µM [falling, partial curve, poor fit]	–
CCC(=O)c1ccccc1OCCCN1C(=O)NC(C)(C)C1=O	6.51 µM [rising, single point]	–
Cn1c(=O)c2[nH]c(N3CCN(c4cccc(O)c4)CC3)nc2n(C)c1=O	0.355 µM [falling, full curve, poor fit]	2 µM [rising, partial curve, poor fit]
Cc1cc(C)c(S(=O)(=O)N(C)CC(=O)NCc2ccncc2)c(C)c1	0.794 µM [rising, full curve, poor fit]	–
CCCc1nc(SCC(=O)Nc2ccc(N3CCOCC3)cc2)c2ccccc2n1	29.1 µM [rising, single point]	–
NC(=O)c1ccccc1NC(=O)/C=C/C(=O)O	11.6 µM [rising, partial curve, poor fit]	–
CCSc1nc2sc3c(c2c(=O)[nH]1)CCc1ccccc1-3	5.8 µM [falling, partial curve, poor fit]	–
O=C(CCNc1ccc(Cc2ccncc2)cc1)c1ccc([N+](=O)[O-])cc1	25.1 µM [falling, single point]	–
CC(C)C1CC(CCN)(Cc2ccccc2)CCO1 (stereo not drawn)	0.316 µM [rising, full curve, poor fit]	–
COc1ccccc1N1CCN(CC(=O)Nc2ccc(Cl)c(C(F)(F)F)c2)CC1	18.4 µM [falling, single point]	–
CC(C)(C)c1ccc2c(c1)OC(C(=O)N/N=C\c1ccccn1)CO2 (stereo not drawn)	32.6 µM [falling, partial curve, poor fit]	–
COC(=O)c1ccc2c(=O)n(CCCCCC(=O)NCc3ccc4c(c3)OCO4)c(=O)[nH]c2c1	23.1 µM [falling, single point]	–
O=C(Nc1ccc(F)cc1)c1cccc(N2C(=O)C3C4CCC(C4)C3C2=O)c1 (stereo not drawn)	29.1 µM [falling, partial curve, poor fit]	–

Entries of single compounds from above.
CCSc1nc2sc3c(c2c(=O)[nH]1)CCc1ccccc1-3 in the list: AC50 [1]: 5.8 µM [falling, partial curve, poor fit]
O=C(Cc1ccc(-c2ccccc2)cc1)NNC(=S)NCc1ccco1 in the list: AC50 [1]: 6.31 µM [rising, partial curve, poor fit]
